This note sets out measurements from article PMC7819943, “Rice protein-binding microarrays: a tool to detect cis-acting elements near promoter regions in rice”.

Amino acid sequences for entries named in this document (tags omitted).
UniProt Q0JBA9, entry or part of it: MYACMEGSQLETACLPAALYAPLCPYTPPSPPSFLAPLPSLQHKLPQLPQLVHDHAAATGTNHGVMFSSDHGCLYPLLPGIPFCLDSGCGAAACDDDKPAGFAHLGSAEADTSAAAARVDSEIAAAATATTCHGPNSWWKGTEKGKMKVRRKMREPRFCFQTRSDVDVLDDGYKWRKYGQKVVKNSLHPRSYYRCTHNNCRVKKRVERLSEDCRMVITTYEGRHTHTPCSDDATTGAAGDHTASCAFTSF

The list shows a part of the results.

For this test, the target named is OsWRKY34 (Oryza sativa, UniProt Q0JBA9 1-250). Put plainly: protein-binding microarray (RPBM); PBS, 2% BSA, 51.3 ng/ul salmon testes DNA, 50 uM zinc acetate, 200 nM TF, 25 C, 1 h; high values mean tight binding. The conditions noted are these: protein: recombinant; tags: N-terminal polyhistidine and DsRed monomer fusion (pET32a); label: CyDye5-dUTP incorporated in the synthesized complementary strand; 3' TTTTT single-stranded linker to array surface; dsDNA, one strand shown. The essentials:
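Transcription factors, each fused N-terminally to a polyhistidine tag and DsRed, were expressed in E. coli BL21-CodonPlus and purified on Ni–NTA. A custom Agilent array was made double-stranded by primer extension with Cy5-dUTP and blocked with 2% BSA. It was incubated with 200 nM protein in PBS, 2% BSA, salmon testes DNA and 50 µM zinc acetate at 25 °C for 1 h, then washed. The binding signal is per-feature fluorescence intensity (arbitrary units) read on an Axon 4000B scanner.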
In the case of “CTAATAGGCCATGTCTGGATAATGGGTTTGGGATATGATTCGGAGTCACCTAGTGCAG”, the binding signal is 8210 fluorescence intensity (a.u.).

Consider “ATATATATATATATATATATATATATATAGAGCGCGCACTCGGAGTCACCTAGTGCAG”, for which the binding signal was 21200 fluorescence intensity (a.u.).

Regarding “ATCATCATCGTCATCACCGCGCATCCCCATAGTCCTCAACCGGAGTCACCTAGTGCAG”, the binding signal is 8660 fluorescence intensity (a.u.).

As to “GGCTAGGTTGTGCGCGCCCTTCTCGATGTAGCAATAGCAACGGAGTCACCTAGTGCAG”, the binding signal was 8520 fluorescence intensity (a.u.).

On to “TTTAGGGCCTGTTCACTTTAATGTCATTTTCAACCTTACCCGGAGTCACCTAGTGCAG”, for which the binding signal is 9260 fluorescence intensity (a.u.).

Turning to “GCTGCACTCTTCTGTTCGGCAACAGCATCGCACCATCTCTCGGAGTCACCTAGTGCAG”, the binding signal is 9060 fluorescence intensity (a.u.).

Turning to “TCAGTCTTTTCAGTTCGGTCTTTTTCTGCCCACCCCTATACGGAGTCACCTAGTGCAG”, the binding signal was 10800 fluorescence intensity (a.u.).

For the sequence “CCATTTGTACCAACTCATGATCGTCTTATCTTAGGACCTGCGGAGTCACCTAGTGCAG”, the binding signal was 8880 fluorescence intensity (a.u.).

Consider “CCATTTTCAACCTTATCAAGTTTTGTCATTGTCAAATTTTCGGAGTCACCTAGTGCAG”, for which the binding signal was 9530 fluorescence intensity (a.u.).

Turning to “TTACTAATATTGCGGGCCATCCGATCCTGACCGTTGAATCCGGAGTCACCTAGTGCAG”, the binding signal was 8340 fluorescence intensity (a.u.).

Consider “TACTATACCACTTACTACTAAGTATTCTGCGCACAAACAGCGGAGTCACCTAGTGCAG”, for which the binding signal was 10800 fluorescence intensity (a.u.).

In the case of “GGATGATTCAATCTTTGCTATTTGCCTTATCCACCTTAAACGGAGTCACCTAGTGCAG”, the binding signal was 10900 fluorescence intensity (a.u.).

As to “ATTTTTCTACAAAATTAGTCAAACTTGTAGTAGTTTGATTCGGAGTCACCTAGTGCAG”, the binding signal is 9940 fluorescence intensity (a.u.).

As to “CTCTCATGTGACCGACCACCGCATCCTCAGTTGACCTGTCCGGAGTCACCTAGTGCAG”, the binding signal was 9780 fluorescence intensity (a.u.).

Take “TTGTATCTTTTTGGTTAATTTTTTTCAGTTTATCACTTGACGGAGTCACCTAGTGCAG”: the binding signal is 8100 fluorescence intensity (a.u.).

Regarding “TCGGTGCGGCTTTTTCTTTCTCTCTCTTTTTTTAAGCACCCGGAGTCACCTAGTGCAG”, the binding signal was 13000 fluorescence intensity (a.u.).

As for “CACAGTTATGCTATCACCTATCATGTCATAACTTATCTAACGGAGTCACCTAGTGCAG”, the binding signal was 8360 fluorescence intensity (a.u.).

“TTGATTGTTGTTTTTTTTTCCATTTCCCATCTGCCAGTATCGGAGTCACCTAGTGCAG”: the binding signal was 8800 fluorescence intensity (a.u.).

Regarding “ATTTTTTTTCCACCAACAATGTTTCAGCTAGTGTACTCATCGGAGTCACCTAGTGCAG”, the binding signal was 8480 fluorescence intensity (a.u.).

In the case of “AACTAGGGTGTAGGGGTGGACTTGACACGCGGGCCTGCAGCGGAGTCACCTAGTGCAG”, the binding signal is 9310 fluorescence intensity (a.u.).

As for “CCAAATCTCTGCCTCTTGTGTTCAGTGCTTGTGACGGCAACGGAGTCACCTAGTGCAG”, the binding signal is 8960 fluorescence intensity (a.u.).

On to “AGCACCCTACTCCTATATTTGCATTCATCCAGTACGTGTTCGGAGTCACCTAGTGCAG”, for which the binding signal is 9610 fluorescence intensity (a.u.).

As to “TGCAAACACCTGCACATCACTACGCCGACAGCTTAAAATTCGGAGTCACCTAGTGCAG”, the binding signal is 8170 fluorescence intensity (a.u.).

For the sequence “CTTGGGGCCTAATGCTGTCTGGGCTTGGGCCGGCCCACTCCGGAGTCACCTAGTGCAG”, the binding signal is 8560 fluorescence intensity (a.u.).

For the sequence “CTGTGACACTTCTTGGCATCTGCTGCACAAACTATACATTCGGAGTCACCTAGTGCAG”, the binding signal was 8610 fluorescence intensity (a.u.).

Take “TCACCTCGCCGCTGTGCTCCCACACTCTATCTTCTCTTTCCGGAGTCACCTAGTGCAG”: the binding signal is 9800 fluorescence intensity (a.u.).

“CCTCCTCGTCAGTTTGCCCTTGTCCACCGCCTCCGCCTCCCGGAGTCACCTAGTGCAG”: the binding signal was 8140 fluorescence intensity (a.u.).

Turning to “TCTAACCCATCCCTGTTTCAGCTATTATTCTTTAATGACTCGGAGTCACCTAGTGCAG”, the binding signal was 8480 fluorescence intensity (a.u.).

Regarding “CCGGGGACCACCTGTCAGTGACCTTTTATGGTGGGGTAGGCGGAGTCACCTAGTGCAG”, the binding signal is 10200 fluorescence intensity (a.u.).

“TGCTCTTTTTCCAACCGATCCATGTCACCCTCAAGCTTCTCGGAGTCACCTAGTGCAG”: the binding signal is 9230 fluorescence intensity (a.u.).

As to “GCTGTTTTGTGGTTTTGTCACAAGATCGAATCCAAGAGTTCGGAGTCACCTAGTGCAG”, the binding signal is 8290 fluorescence intensity (a.u.).

As to “CATGTTCATCGGAGAGAGGGTTATTTTGGTCAGTTGAAGTCGGAGTCACCTAGTGCAG”, the binding signal is 8350 fluorescence intensity (a.u.).

For “ATCCCCATGCTTGCGCACCACTCCCGGCCACATCCCGCGCCGGAGTCACCTAGTGCAG”, the binding signal is 13800 fluorescence intensity (a.u.).

Consider “ATCTAATCAAGCACAACTCCAGTTCCTGCTTACTGCCACCCGGAGTCACCTAGTGCAG”, for which the binding signal was 8830 fluorescence intensity (a.u.).

Consider “ATGTGAGTTTTTTTTTTGCAATGGAATATTTCGTTCACTACGGAGTCACCTAGTGCAG”, for which the binding signal is 9140 fluorescence intensity (a.u.).

For the sequence “GGTCCATTGATCGAATCTACACACTCGCTATGTTTGCTACCGGAGTCACCTAGTGCAG”, the binding signal is 8150 fluorescence intensity (a.u.).

“CCGCAGAGCCTGTCCTTGCACCGCTTCACCGCGCCGAACACGGAGTCACCTAGTGCAG”: the binding signal was 8940 fluorescence intensity (a.u.).

For the sequence “TCTATATTTTTGCTATTTTCCATTAAAATCATATTATTTCCGGAGTCACCTAGTGCAG”, the binding signal is 8940 fluorescence intensity (a.u.).

Turning to “GTGATTTCTGAGTTTCGGTTTATGTTTCTTGCCTCTGACGCGGAGTCACCTAGTGCAG”, the binding signal is 12500 fluorescence intensity (a.u.).

Take “CCACCTCGGTACATGTTCTACATGTTGCGCGTATTTGATCCGGAGTCACCTAGTGCAG”: the binding signal was 9360 fluorescence intensity (a.u.).

Consider “TTGCTGATGGCGCTGGTTTACTGCTCCTGAGGGGTAGGGACGGAGTCACCTAGTGCAG”, for which the binding signal was 9110 fluorescence intensity (a.u.).

Regarding “TATAGCTGTCCTCGAACCTATTCCACCGCCACGCGAGCAACGGAGTCACCTAGTGCAG”, the binding signal was 8800 fluorescence intensity (a.u.).

In the case of “ATCCTATAGCATGTGATAAACCCATTACTACAAAACATCACGGAGTCACCTAGTGCAG”, the binding signal is 8200 fluorescence intensity (a.u.).

Consider “GCATGATATGATTCCTCCTGCTTTGATTCCAGTACATGTCCGGAGTCACCTAGTGCAG”, for which the binding signal was 8840 fluorescence intensity (a.u.).

Consider “GAGTGACTCTCTCTTCCATACATTGTCCCAAATATTATTTCGGAGTCACCTAGTGCAG”, for which the binding signal was 8970 fluorescence intensity (a.u.).

As for “TGACTGACAACTTGGTCTTTTTTTTTTGATTTTGTTCTTTCGGAGTCACCTAGTGCAG”, the binding signal is 11900 fluorescence intensity (a.u.).

Consider “GCATTTTTTACACAGGGAGCCACCATCATTGTCATCAGAACGGAGTCACCTAGTGCAG”, for which the binding signal was 8970 fluorescence intensity (a.u.).

As for “AACACTACTTGTCCTTTTCACATTGCATCATCGTTGAAACCGGAGTCACCTAGTGCAG”, the binding signal was 9500 fluorescence intensity (a.u.).

On to “AGCCCATTAAGAATCTAGCCTGCGAGCCAACCGAGAAAATCGGAGTCACCTAGTGCAG”, for which the binding signal is 8060 fluorescence intensity (a.u.).

As to “ATCCAGTATAGTGTTGGTGATCTTTTGTGGCTATTTAGTTCGGAGTCACCTAGTGCAG”, the binding signal was 8590 fluorescence intensity (a.u.).

For the sequence “GTGCACCGCCGATTCTCTTATCACTCTTTTTTATCAATATCGGAGTCACCTAGTGCAG”, the binding signal was 8520 fluorescence intensity (a.u.).

In the case of “CTTCTTCTATATCTGTAATCTTTCCTTATCTCCTCCCATGCGGAGTCACCTAGTGCAG”, the binding signal was 8520 fluorescence intensity (a.u.).

For the sequence “CGCTAGAAGCTTCCATTCCAAGCTCCAATCGGTCGTTGACCGGAGTCACCTAGTGCAG”, the binding signal is 9460 fluorescence intensity (a.u.).

For “CAGACACATACCTTTCATGCTTCAACTTTTGTATGTTTGTCGGAGTCACCTAGTGCAG”, the binding signal is 8170 fluorescence intensity (a.u.).
